Earlier results, collected in patent US7893083B2, “Method of treating genital herpes” (priority 2003, dated 2011).
For at least one compound, name, drawing or mass did not settle the structure.

Key:
TLR7 = target: T1, TLR7 (Homo sapiens, UniProt Q9NYK1); settings: cited from earlier work
T1 sequence (Q9NYK1 27-1049): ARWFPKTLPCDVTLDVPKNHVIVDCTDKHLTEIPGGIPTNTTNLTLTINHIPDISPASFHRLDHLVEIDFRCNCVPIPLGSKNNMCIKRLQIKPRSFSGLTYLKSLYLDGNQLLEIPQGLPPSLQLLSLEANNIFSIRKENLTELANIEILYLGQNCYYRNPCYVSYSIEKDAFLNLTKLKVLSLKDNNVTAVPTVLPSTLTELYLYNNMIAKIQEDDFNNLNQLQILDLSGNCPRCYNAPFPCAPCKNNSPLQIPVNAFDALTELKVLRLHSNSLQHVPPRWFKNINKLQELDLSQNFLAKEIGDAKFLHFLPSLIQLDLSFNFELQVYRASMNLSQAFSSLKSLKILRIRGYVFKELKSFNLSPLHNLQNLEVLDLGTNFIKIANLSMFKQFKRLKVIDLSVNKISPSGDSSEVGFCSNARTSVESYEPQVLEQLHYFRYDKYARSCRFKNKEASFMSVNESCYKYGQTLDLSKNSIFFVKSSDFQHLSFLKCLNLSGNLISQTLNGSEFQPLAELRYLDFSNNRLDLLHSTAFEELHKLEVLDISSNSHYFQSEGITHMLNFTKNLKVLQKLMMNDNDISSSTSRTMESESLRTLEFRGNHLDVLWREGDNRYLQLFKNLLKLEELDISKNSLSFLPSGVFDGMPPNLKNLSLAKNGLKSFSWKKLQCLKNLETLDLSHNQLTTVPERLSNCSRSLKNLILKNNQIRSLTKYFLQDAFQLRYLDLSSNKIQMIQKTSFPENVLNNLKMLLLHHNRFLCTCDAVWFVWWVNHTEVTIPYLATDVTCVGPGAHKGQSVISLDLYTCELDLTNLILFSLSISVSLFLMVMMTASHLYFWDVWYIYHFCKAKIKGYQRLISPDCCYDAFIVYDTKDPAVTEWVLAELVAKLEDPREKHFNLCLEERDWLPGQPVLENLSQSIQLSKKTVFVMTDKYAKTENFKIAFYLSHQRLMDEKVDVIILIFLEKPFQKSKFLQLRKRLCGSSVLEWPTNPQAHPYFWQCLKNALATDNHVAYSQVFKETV

[1] = system: purified plasmacytoid dendritic cells; settings: cited from earlier work

**Q.** Which results are given for `CCOCc1nc2c(N)nc3ccccc3c2n1CC(C)(C)O` [resiquimod, 4-amino-2-ethoxymethyl-a,a-dimethyl-1H-imidazol [4,5-c]quinoline-lethanol]?
**A.** Activity at TLR7 (TLR7): TLR7 agonists; IFN-a induction [1]: induce IFN-a
